Source: PubChem BioAssay AID504467 (National Center for Advancing Translational Sciences (NCATS), 2011)
Screen size: about 330,000 compounds; about 7,700 (2.3%) were called active. The shares of active, inactive and inconclusive entries below differ from those in the screen. Calls follow the shape of the dose curve; as a rule, active = well fitted inhibition curve with a large enough effect; inconclusive = small, poorly fitted or top-dose-only effect, or effect the other way; inactive = flat fitted curve, though single readings scatter. Where the call is inconclusive, the potency comes from a doubtful curve fit.

Test: qHTS screen for small molecules that inhibit ELG1-dependent DNA repair in human embryonic kidney (HEK293T) cells expressing luciferase-tagged ELG1; also: nearly all actives have a fitted effect of over 55% in size
Settings: HEK293T ELG1-luciferase reporter, luminescence, 16 h, DNA damage induced by 5-fluorouridine; series mostly up to 46.1 µM
Method in brief: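 5-Fluorouridine DNA damage + compound/DMSO, 2,000 cells/well, 16 h, 37 °C/5% CO2. ONE-Glo, 30 min RT, luminescence. Readout = decrease in reporter signal.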
Potency is read from the fitted curve at half-maximal effect.

Structure (SMILES) | Potency
CC(=O)N1CCN(S(=O)(=O)c2cccc(C(=O)NNC(=O)Cn3nc(C)cc3C)c2)CC1 | inactive
O=C(Nc1ccc[n+](CC(=O)c2cccc3ccccc23)c1)c1ccccc1 | inactive
O=C(NCC(O)c1ccccc1)c1ccc(Cl)c(S(=O)(=O)N2CCCC2)c1 (configuration not stated) | inconclusive: 11.6 µM [activator, single point]
O=C(N/N=C/c1cccc(Oc2ccccc2)c1)c1ccccc1Br | inconclusive: 0.461 µM [inhibitor, partial curve]
CCC(C)NC(=O)c1cccc(OCc2c(C)noc2C)c1 (configuration not stated) | inactive
CSc1nnc(CCCCCCCCc2nnc(SC)o2)o1 | inconclusive: 29.1 µM [inhibitor, single point]
COc1ccc(CCNC(=O)c2ccc3ccccc3n2)cc1OC | inconclusive: 29.1 µM [inhibitor, single point]
Cc1cc(C)c([N+](=O)[O-])cc1-c1ccc(/C=N/c2c(-c3ccco3)nc3ccccn23)o1 | inconclusive: 18.4 µM [activator, single point]
CCOC(=O)C1CCCN(S(=O)(=O)c2ccc(Cl)nc2)C1 (configuration not stated) | inactive
COc1ccc(CCn2c(C3CCCCC3)nc3c(c(=O)c4ccccc4n3C)c2=O)cc1 | active: 16.4 µM
O=C(COC(=O)CC1c2ccccc2CCN1S(=O)(=O)c1ccc(F)cc1)Nc1ccccc1 (configuration not stated) | inconclusive: 29.1 µM [inhibitor, single point]
CCOC(=O)N1CCC(Nc2c(Nc3cccc(CC)c3)c(=O)c2=O)CC1 | inconclusive: 25.9 µM [inhibitor, single point]
Cc1ccc(S(=O)(=O)NN2Cc3ccccc3C2=N)cc1 | inconclusive: 25.9 µM [inhibitor, partial curve, poor fit]
Cc1onc(-c2ccccc2)c1NC(=O)Nc1ccc(OC(F)F)cc1 | inconclusive: 20.6 µM [inhibitor, single point]
COc1ccc(CCC(C)N(C)Cc2ccccc2)cc1 (configuration not stated) | inactive
CCOc1ccc(-c2noc(COC)n2)cc1OC | inconclusive: 8.2 µM [activator, partial curve]
O=C1/C(=C/c2ccc([N+](=O)[O-])cc2)CCc2ccccc21 | inconclusive: 23.1 µM [activator, partial curve]
CN(C)c1ccc(NC(=O)/C=C/c2ccccc2Cl)cc1 | inconclusive: 9.2 µM [activator, partial curve]
CC(=O)c1sc(N/N=C/c2cccc(O)c2)nc1C | inconclusive: 18.3 µM [activator, partial curve]
Cc1ccc(C(O)c2ccncc2)cc1 (configuration not stated) | inactive
Cc1ccnc2nc(C(=O)OCC(=O)NC3CCCC(C)C3C)nn12 (configuration not stated) | inactive
COc1cc(C(c2c(NC(=O)c3ccco3)sc(C)c2C)N2CCOCC2)cc(OC)c1OC (configuration not stated) | inconclusive: 10.3 µM [activator, partial curve, poor fit]
O=S1(=O)CCO[C@H]2Cc3ccccc3[C@H]2N1Cc1ccc(Cl)cc1 | inactive
N#CCSc1nc2ccccc2c(=O)n1CCC(=O)NCCc1ccccc1 | inactive

Rewritten as a markdown table: entries from further up.

| Structure (SMILES) | Potency |
| --- | --- |
| Cc1cc(C)c([N+](=O)[O-])cc1-c1ccc(/C=N/c2c(-c3ccco3)nc3ccccn23)o1 | inconclusive: 18.4 µM [activator, single point] |
| CCOC(=O)C1CCCN(S(=O)(=O)c2ccc(Cl)nc2)C1 (configuration not stated) | inactive |
| O=C(COC(=O)CC1c2ccccc2CCN1S(=O)(=O)c1ccc(F)cc1)Nc1ccccc1 (configuration not stated) | inconclusive: 29.1 µM [inhibitor, single point] |
| Cc1ccc(S(=O)(=O)NN2Cc3ccccc3C2=N)cc1 | inconclusive: 25.9 µM [inhibitor, partial curve, poor fit] |
| Cc1onc(-c2ccccc2)c1NC(=O)Nc1ccc(OC(F)F)cc1 | inconclusive: 20.6 µM [inhibitor, single point] |
| O=C1/C(=C/c2ccc([N+](=O)[O-])cc2)CCc2ccccc21 | inconclusive: 23.1 µM [activator, partial curve] |
| CN(C)c1ccc(NC(=O)/C=C/c2ccccc2Cl)cc1 | inconclusive: 9.2 µM [activator, partial curve] |
| CC(=O)c1sc(N/N=C/c2cccc(O)c2)nc1C | inconclusive: 18.3 µM [activator, partial curve] |
| Cc1ccc(C(O)c2ccncc2)cc1 (configuration not stated) | inactive |
| Cc1ccnc2nc(C(=O)OCC(=O)NC3CCCC(C)C3C)nn12 (configuration not stated) | inactive |

The results go on:

Structure (SMILES) | Potency
CN1CCN(C(=O)CCN2C(=O)/C(=C\c3ccc(F)cc3)SC2=S)CC1 | inactive
CN1C(=O)C(c2ccccc2[N+](=O)[O-])C(=O)c2ccccc21 (configuration not stated) | inconclusive: 29.1 µM [inhibitor, single point]
CCc1cc(SC#N)cc(C)c1N | inconclusive: 20.6 µM [inhibitor, single point]
CCc1cc(C(=O)NC(C)C2CCCO2)cs1 (configuration not stated) | inconclusive: 20.6 µM [activator, single point]
CC(C)Oc1cccc(C(=O)NC(=S)Nc2ccccc2)c1 | inconclusive: 2.06 µM [activator, full curve]
O=C(COC(=O)c1ccccc1C(=O)N1CCN(c2ccccc2)CC1)Nc1ccc(F)cc1 | inconclusive: 29.1 µM [inhibitor, partial curve, poor fit]
COc1cc(C(=O)NC(=S)N(C)Cc2ccccc2)cc(OC)c1OC | inconclusive: 18.3 µM [inhibitor, single point]
Cc1cc(NC(=O)CSCC(=O)N(C)Cc2c(F)cccc2Cl)no1 | inactive
CC1CCCN(C(=O)c2cc3c(-c4ccc(Cl)cc4)nn(C)c3s2)C1 (configuration not stated) | inconclusive: 32.6 µM [inhibitor, single point]
COc1ccc(-c2onc3ccc(Br)cc23)cc1 | inactive
C=CCn1c(SCC(=O)NCC2CCCO2)nc2scc(-c3ccc(OC)cc3)c2c1=O (configuration not stated) | inactive
Cc1csc(N/N=C/c2ccc([N+](=O)[O-])cc2)n1 | inconclusive: 20.6 µM [activator, partial curve]
CCOC(=O)c1sc(Nc2nc(OC)cc(OC)n2)nc1C | active: 25.9 µM
O=C1N[C@@H](Cc2ccccc2)COC(=O)[C@H](Cc2ccc(F)cc2)C/C=C\C[C@@H]1CC(=O)N(CCO)Cc1ccccc1 | active: 20.6 µM
O=C(O)c1ccc2nc(CO)[nH]c2c1 | inconclusive: 18.4 µM [activator, single point]
O=C(NCC(=O)N1CCN(C(=O)c2ccccc2)CC1)c1ccc(Cl)cc1Cl | inactive
COc1ccc(/C=N/Nc2snc(SC)c2C#N)cc1OC | inconclusive: 3.16 µM [activator, full curve]
CCN(CC)C(=O)CSc1ncnc2sccc12 | inconclusive: 18.3 µM [activator, partial curve]
CN(C)S(=O)(=O)c1cccc(NC(=S)NCc2ccco2)c1 | inconclusive: 18.3 µM [inhibitor, partial curve, poor fit]
O=C(c1cnn(-c2ccccc2)c1)c1ccc2ccccc2c1O | inconclusive: 17.8 µM [activator, partial curve, poor fit]
Cc1cc(C)cc(C(=O)NC(=S)Nc2ccc3c(c2)OCCO3)c1 | inconclusive: 10.3 µM [activator, partial curve]
CCNC(=S)NNC(=O)c1ccccn1 | inactive
CCCCNC(=O)N1CCN(c2ccnc3cc(Cl)ccc23)CC1 | active: 20.6 µM
